PubChem BioAssay AID1159578 – Peter MacCallum Cancer Centre, 2015
Screen: 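Genome-wide hunt for genes controlling movement of lymphatic endothelial cells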 (primary screen). System: human lymphatic endothelial cells. Reagent: siRNA pool against human genes, 40 nM. Time to read-out: 48 h after transfection. Detection: 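High-content imaging of dye-stained cells in a scratch assay measures filled wound area and nuclei per well; duplicate means given as ratio to mock and robust z-score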. Direction: migration robust z-score: higher = faster migration into the scratch; migration relative to mock: higher = more scratch area covered than mock; nuclei per well: higher = more cells in the well. Hit rule: 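Migration changed when robust z exceeds 2 or falls below -2 and mean nuclei number is at least 3300; otherwise not called changed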. Meaning of the calls: active = migration changed; inactive = no migration change, or too few cells.
In all, the deposit lists about 18,000 reagents; below is a part drawn at random. Of all reagents, about 1,030 (5.7%) are marked active. 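Inactive calls also include pools with fewer than 3300 nuclei, whose migration was not assessed.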 Raw values vary from plate to plate and are shown uncorrected. Entries without a mark were called inactive.

gene | migration robust z-score | migration class with cell-count check | migration relative to mock | nuclei per well, duplicate mean
FXYD5 (FXYD domain containing ion transport regulator 5) | -1.09 | under 3300 nuclei; migration not judged | 0.6 | 3100
TMCC1 (transmembrane and coiled-coil domain family 1) | 0.92 | migration z between -2 and 2; enough cells | 1.13 | 5074
TMPRSS6 (transmembrane serine protease 6) | 1.4 | migration z between -2 and 2; enough cells | 1.07 | 5603
GPR157 (G protein-coupled receptor 157) | -0.49 | migration z between -2 and 2; enough cells | 0.71 | 6081
STK10 (serine/threonine kinase 10) | -2 | migration z between -2 and 2; enough cells | 0.42 | 4178
EML1 (EMAP like 1) | -0.16 | migration z between -2 and 2; enough cells | 0.85 | 5572
RPL30 (ribosomal protein L30) | -0.66 | migration z between -2 and 2; enough cells | 0.72 | 4004
DCK (deoxycytidine kinase) | 0.02 | migration z between -2 and 2; enough cells | 0.81 | 5596
TPD52L1 (TPD52 like 1) | 3.25 (active) | migration z above 2; enough cells | 1.73 | 6982
BRD7 (bromodomain containing 7) | -2.46 (active) | migration z below -2; enough cells | 0.25 | 3924
TMEM200B (transmembrane protein 200B) | -1.73 | migration z between -2 and 2; enough cells | 0.44 | 6814
THOC5 (THO complex subunit 5) | -0.74 | migration z between -2 and 2; enough cells | 0.7 | 5735
MARCKS (myristoylated alanine rich protein kinase C substrate) | 0.39 | migration z between -2 and 2; enough cells | 0.88 | 6392
LZTR1 (leucine zipper like post translational regulator 1) | -0.44 | migration z between -2 and 2; enough cells | 0.72 | 5720
FABP9 (fatty acid binding protein 9) | -1.06 | migration z between -2 and 2; enough cells | 0.62 | 3724
PLEKHG1 (pleckstrin homology and RhoGEF domain containing G1) | -1.66 | under 3300 nuclei; migration not judged | 0.45 | 2754
KCTD10 (potassium channel tetramerization domain containing 10) | -3.19 | under 3300 nuclei; migration not judged | 0.19 | 3207
SIGLEC15 (sialic acid binding Ig like lectin 15) | -0.89 | migration z between -2 and 2; enough cells | 0.66 | 5864
ALDH2 (aldehyde dehydrogenase 2 family member) | 0.83 | migration z between -2 and 2; enough cells | 0.96 | 5742
CADM4 (cell adhesion molecule 4) | 0.59 | migration z between -2 and 2; enough cells | 1.04 | 6320
INIP (INTS3 and NABP interacting protein) | 0.94 | migration z between -2 and 2; enough cells | 1.13 | 5616
ALPK3 (alpha kinase 3) | 0.02 | migration z between -2 and 2; enough cells | 0.81 | 4054
ST13 (ST13 Hsp70 interacting protein) | 0.13 | migration z between -2 and 2; enough cells | 0.83 | 5634
N4BP1 (NEDD4 binding protein 1) | 0.28 | migration z between -2 and 2; enough cells | 0.96 | 5236
UTP14A (UTP14A small subunit processome component) | 1.5 | migration z between -2 and 2; enough cells | 1.27 | 7390
GP2 (glycoprotein 2) | -1.83 | migration z between -2 and 2; enough cells | 0.41 | 5398
CFAP20DC (CFAP20 domain containing) | 0.64 | migration z between -2 and 2; enough cells | 1.05 | 6014
NMI (N-myc and STAT interactor) | 0.62 | migration z between -2 and 2; enough cells | 0.92 | 5450
UROD (uroporphyrinogen decarboxylase) | 0.38 | migration z between -2 and 2; enough cells | 0.88 | 5676
NMUR2 (neuromedin U receptor 2) | -0.1 | migration z between -2 and 2; enough cells | 0.78 | 5064
ARL4A (ARF like GTPase 4A) | 0.91 | migration z between -2 and 2; enough cells | 0.98 | 6002
ARL13A (ARF like GTPase 13A) | 0.46 | migration z between -2 and 2; enough cells | 1 | 5638
PRR22 (proline rich 22) | -0.99 | migration z between -2 and 2; enough cells | 0.62 | 4625
CEP89 (centrosomal protein 89) | 0.3 | migration z between -2 and 2; enough cells | 0.97 | 4972
SHFL (shiftless antiviral inhibitor of ribosomal frameshifting) | 0.1 | migration z between -2 and 2; enough cells | 0.82 | 4602
LHX1 (LIM homeobox 1) | 0.11 | migration z between -2 and 2; enough cells | 0.82 | 5790
RRM1 (ribonucleotide reductase catalytic subunit M1) | -1.63 | migration z between -2 and 2; enough cells | 0.49 | 4046

Called active (from the list above):
gene | migration robust z-score | migration class with cell-count check | migration relative to mock | nuclei per well, duplicate mean
TPD52L1 (TPD52 like 1) | 3.25 (active) | migration z above 2; enough cells | 1.73 | 6982
BRD7 (bromodomain containing 7) | -2.46 (active) | migration z below -2; enough cells | 0.25 | 3924

The results go on:
gene | migration robust z-score | migration class with cell-count check | migration relative to mock | nuclei per well, duplicate mean
ZNF618 (zinc finger protein 618) | -0.67 | under 3300 nuclei; migration not judged | 0.72 | 3248
ABCC2 (ATP binding cassette subfamily C member 2) | 0.28 | migration z between -2 and 2; enough cells | 0.86 | 5887
BCHE (butyrylcholinesterase) | 0.34 | migration z between -2 and 2; enough cells | 0.87 | 4859
DPY19L3 (dpy-19 like C-mannosyltransferase 3) | 2.34 (active) | migration z above 2; enough cells | 1.49 | 7906
CISD1 (CDGSH iron sulfur domain 1) | -0.18 | migration z between -2 and 2; enough cells | 0.84 | 6620
EVL (Enah/Vasp-like) | 0.09 | migration z between -2 and 2; enough cells | 0.91 | 5700
MSX2 (msh homeobox 2) | -1.71 | migration z between -2 and 2; enough cells | 0.48 | 6545
AKAP5 (A-kinase anchoring protein 5) | 0.36 | migration z between -2 and 2; enough cells | 0.88 | 6366
VENTX (VENT homeobox) | 1.02 | migration z between -2 and 2; enough cells | 1 | 6164
SERPINB12 (serpin family B member 12) | -0.26 | migration z between -2 and 2; enough cells | 0.76 | 5555
SULT4A1 (sulfotransferase family 4A member 1) | -1.09 | migration z between -2 and 2; enough cells | 0.6 | 5590
TMEM51 (transmembrane protein 51) | -1.09 | migration z between -2 and 2; enough cells | 0.6 | 5822
AVL9 (AVL9 cell migration associated) | 0.4 | migration z between -2 and 2; enough cells | 0.98 | 5196
PGAM1 (phosphoglycerate mutase 1) | -1.94 | migration z between -2 and 2; enough cells | 0.43 | 4908
ABCC12 (ATP binding cassette subfamily C member 12) | 0.46 | migration z between -2 and 2; enough cells | 0.9 | 5663
LPAR4 (lysophosphatidic acid receptor 4) | -0.18 | migration z between -2 and 2; enough cells | 0.77 | 5739
IRF2 (interferon regulatory factor 2) | 0.65 | migration z between -2 and 2; enough cells | 0.93 | 6768
ACP1 (acid phosphatase 1) | -0.76 | migration z between -2 and 2; enough cells | 0.66 | 4227
SFMBT1 (Scm like with four mbt domains 1) | 1.38 | migration z between -2 and 2; enough cells | 1.25 | 5785
TRPV5 | -0.86 | migration z between -2 and 2; enough cells | 0.64 | 4040
PTPRZ1 (protein tyrosine phosphatase receptor type Z1) | 0.62 | migration z between -2 and 2; enough cells | 0.92 | 5366
GPS1 (G protein pathway suppressor 1) | 1.27 | migration z between -2 and 2; enough cells | 1.21 | 4404
PSMA7 (proteasome 20S subunit alpha 7) | 0.83 | migration z between -2 and 2; enough cells | 0.96 | 5795
RIF1 (replication timing regulatory factor 1) | 0.96 | migration z between -2 and 2; enough cells | 1.14 | 5676
MGAT4D (MGAT4 family member D) | -0.12 | migration z between -2 and 2; enough cells | 0.85 | 6508
WNK3 (WNK lysine deficient protein kinase 3) | -0.6 | migration z between -2 and 2; enough cells | 0.69 | 4125
HMGCS1 (3-hydroxy-3-methylglutaryl-CoA synthase 1) | 1.06 | migration z between -2 and 2; enough cells | 1.01 | 5830
TRNP1 (TMF1 regulated nuclear protein 1) | 0.58 | migration z between -2 and 2; enough cells | 1.04 | 4688
EP300 (EP300 lysine acetyltransferase) | 0.03 | migration z between -2 and 2; enough cells | 0.81 | 4994
OR2M2 (olfactory receptor family 2 subfamily M member 2) | -1.1 | migration z between -2 and 2; enough cells | 0.6 | 5222
NXPE1 (neurexophilin and PC-esterase domain family member 1) | 0.87 | migration z between -2 and 2; enough cells | 1.11 | 6556
MEA1 (male-enhanced antigen 1) | -0.64 | migration z between -2 and 2; enough cells | 0.72 | 6864
LIN28B (lin-28 RNA binding posttranscriptional regulator B) | 1.12 | migration z between -2 and 2; enough cells | 1.18 | 5972
USP31 (ubiquitin specific peptidase 31) | -0.52 | migration z between -2 and 2; enough cells | 0.7 | 6670
NFYA (nuclear transcription factor Y subunit alpha) | 2.1 (active) | migration z above 2; enough cells | 1.21 | 5724
CD38 (CD38 molecule) | -0.54 | migration z between -2 and 2; enough cells | 0.7 | 5360
